Values quoted from earlier work in patent EP1671630A2, “L-Arginine based formulations for treating diseases and methods of using the same” (Angiogenix, Inc., priority 1999, dated 2000).
The name of at least one read-out is uncertain.

Details: cited from earlier work

NCCCN(CCCN)/[N+]([O-])=N/O [DPTA-NONOate, dipropylenetriamine NONOate]
t1/2 of NO release: ~ 5 hours
